18 compounds from PubChem BioAssay AID256 (DTP/NCI, 2004) can be followed below.

The list shows only some results of the screen, not a fair sample: it is rich in T/C values a quarter to a half above the control, in often repeated tests (any T/C) and in doses without a T/C. Other doses and runs of a compound stand elsewhere. T/C is the treated group as % of the vehicle group. Some doses have a count of surviving animals in place of a T/C: the source files T/C as zero there, which appears to mark a toxic dose or a test without result, not a measured value. Some survivor counts are full or nearly so, which does not show that the dose was tolerated: survival well below the control is almost never listed, so the zero probably covers shortened survival too. Survivors were counted at the toxicity check, usually on the fifth day, unless a day is given; later deaths do not show. Schedules are NCI's codes, taken here to give the interval after Q, in days (D) or hours (H), and the number of doses after X. For survival time, the PubChem record calls one and a half times the control and up active, and a quarter to a half above the control has no call in these data; cut-offs in other NCI protocols can differ. Some doses were run more than once; their values stand side by side, smallest first. Some T/C values carry the count of animals alive at the toxicity check (mostly the fifth day); where none is given, no animal had died by that day.

The test system of the assay is CD2F1 mice, L1210 leukemia ip, survival T/C. Put plainly: NCI In Vivo Anticancer Drug Screen. Data for tumor model L1210 Leukemia (intraperitoneal) in CD2F1 (CDF1) mice. To be noted: higher T/C = longer survival. In a few lines:
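Transplantable tumor in mice; compound-treated vs vehicle-treated groups. Read-out = treated/control ratio of the measured endpoint.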

Where [1] appears, read: T/C endpoint: mean survival time, dose: 200.0 mg/kg/injection, schedule: Q01DX009 (ip), vehicle: saline with Tween-80.
Where [2] appears, read: T/C endpoint: mean survival time, dose: 400.0 mg/kg/injection, schedule: Q04DX003 (ip), vehicle: saline with Tween-80.
[3] abbreviates: T/C endpoint: mean survival time, dose: 400.0 mg/kg/injection, schedule: Q01DX009 (ip), vehicle: saline with Tween-80.

For the compound `COc1cccc2c1C(=O)c1c(O)c3c(c(O)c1C2=O)C[C@@](O)(/C(C)=N/NC(=O)c1ccccc1)C[C@@H]3OC1CC(N)C(O)C(C)O1` (some centres not stated), the T/C (T/C endpoint: mean survival time, dose: 1.8 mg/kg/injection, schedule: Q01DX009 (ip), vehicle: saline) is 135 % of control; the T/C (T/C endpoint: mean survival time, dose: 5.0 mg/kg/injection, schedule: Q01DX009 (ip), vehicle: saline) was 134 % of control; the T/C (T/C endpoint: mean survival time, dose: 8.0 mg/kg/injection, schedule: Q01DX009 (ip), vehicle: water) is 131 % of control; the T/C (T/C endpoint: mean survival time, dose: 8.0 mg/kg/injection, schedule: Q04DX003 (ip), vehicle: saline) is 148 % of control; the T/C (T/C endpoint: mean survival time, dose: 13.3 mg/kg/injection, schedule: Q04DX003 (ip), vehicle: saline) was 136 % of control; the T/C (T/C endpoint: median survival time, dose: 1.0 mg/kg/injection, schedule: Q03HX024 (ip), vehicle: water) was 130 % of control. Besides, the T/C by setting is: (T/C endpoint: median survival time, dose: 2.0 mg/kg/injection, schedule: Q03HX008 (ip), vehicle: water) 130 % of control; (T/C endpoint: median survival time, dose: 2.0 mg/kg/injection, schedule: Q03HX016 (ip), vehicle: water) 129 % of control; (T/C endpoint: median survival time, dose: 2.0 mg/kg/injection, schedule: Q03HX024 (ip), vehicle: water) 140 % of control [9 of 10 alive]; (T/C endpoint: median survival time, dose: 4.0 mg/kg/injection, schedule: Q01DX009 (ip), vehicle: water) 127 % of control; (T/C endpoint: median survival time, dose: 4.0 mg/kg/injection, schedule: Q03HX008 (ip), vehicle: water) 132 % of control; (T/C endpoint: median survival time, dose: 4.0 mg/kg/injection, schedule: Q04DX003 (ip), vehicle: water) 126 % of control. Moreover, the T/C was 141 % of control (T/C endpoint: median survival time, dose: 8.0 mg/kg/injection, schedule: Q01DX009 (ip), vehicle: water); 130 and 145 % of control (T/C endpoint: median survival time, dose: 8.0 mg/kg/injection, schedule: Q04DX003 (ip), vehicle: water); 132 % of control (T/C endpoint: median survival time, dose: 16.0 mg/kg/injection, schedule: Q01DX001 (ip), vehicle: water); 147 % of control (T/C endpoint: median survival time, dose: 16.0 mg/kg/injection, schedule: Q04DX003 (ip), vehicle: water); 133 % of control (T/C endpoint: median survival time, dose: 16.0 mg/kg/injection, schedule: Q08DX002 (ip), vehicle: water); 147 % of control [9 of 10 alive] (T/C endpoint: median survival time, dose: 32.0 mg/kg/injection, schedule: Q08DX002 (ip), vehicle: water). The survivor count was 6 of 6 (T/C endpoint: mean survival time, dose: 16.0 mg/kg/injection, schedule: Q01DX009 (ip), vehicle: water); 6 of 6 (T/C endpoint: mean survival time, dose: 16.0 mg/kg/injection, schedule: Q04DX003 (ip), vehicle: water); 9 of 10 (T/C endpoint: median survival time, dose: 16.0 mg/kg/injection, schedule: Q01DX009 (ip), vehicle: water); 5 of 10 (T/C endpoint: median survival time, dose: 32.0 mg/kg/injection, schedule: Q01DX009 (oral), vehicle: water); 6 of 10 (T/C endpoint: median survival time, dose: 64.0 mg/kg/injection, schedule: Q01DX009 (oral), vehicle: water).
For `Cc1ncc(C[P+](c2ccccc2)(c2ccccc2)c2ccccc2)c(C)c1O`, the survivor count is, setting by setting: (T/C endpoint: mean survival time, dose: 150.0 mg/kg/injection, schedule: Q01DX001 (ip), vehicle: saline) 3 of 6; (T/C endpoint: mean survival time, dose: 300.0 mg/kg/injection, schedule: Q01DX001 (ip), vehicle: saline) 0 of 6.
As for `CCCCCCCCCCCCN(CN1C(=O)c2ccccc2C1=O)CN1C(=O)c2ccccc2C1=O`, under setting [1], the survivor count is 5 of 6.
In the case of `Cc1cc(N2CCC(N3CCCC3)CC2)nc(/N=C(\N)Nc2ccc(Cl)c(Cl)c2)n1`, the survivor count is on record as 5 of 6 (T/C endpoint: mean survival time, dose: 100.0 mg/kg/injection, schedule: Q04DX003 (ip), vehicle: saline with Tween-80); 1 of 6 (T/C endpoint: mean survival time, dose: 200.0 mg/kg/injection, schedule: Q04DX003 (ip), vehicle: saline with Tween-80); 0 of 6 under setting [2].
With `COC(=O)Nc1ccccc1OS(=O)(=O)N(C)C`, the survivor count runs as follows: under setting [1], 1 of 6; under setting [3], 2 of 6.
Regarding `Nc1ncc(C(=O)c2ccccc2)cc1[N+](=O)[O-]`, the survivor count under setting [2] is on record as 5 of 6.
Regarding `COC(=O)C(CCCCN=Cc1ccccc1O)N=Cc1ccccc1O.[Ni]` (configuration not stated), the survivor count under setting [1] is reported as 5 of 6.
`COC1OC(CO)C(O)C(NC(=O)N(C)N=O)C1O` (configuration not stated): the T/C was 128 % of control (T/C endpoint: mean survival time, dose: 25.0 mg/kg/injection, schedule: Q01DX009 (ip), vehicle: saline); 130 and 143 % of control (T/C endpoint: mean survival time, dose: 50.0 mg/kg/injection, schedule: Q01DX009 (ip), vehicle: saline); 142 % of control (T/C endpoint: mean survival time, dose: 100.0 mg/kg/injection, schedule: Q01DX009 (ip), vehicle: saline); 139 % of control (T/C endpoint: median survival time, dose: 25.0 mg/kg/injection, schedule: Q01DX009 (ip), vehicle: saline); 126 [5 of 6 alive] and 149 % of control (T/C endpoint: median survival time, dose: 50.0 mg/kg/injection, schedule: Q01DX009 (ip), vehicle: saline); 140 % of control (T/C endpoint: median survival time, dose: 144.0 mg/kg/injection, schedule: Q01DX005 (ip), vehicle: saline). In addition, where the note is “T/C endpoint: median survival time, dose: 666.66 mg/kg/injection, schedule: Q01DX005 (ip), vehicle: saline”, the T/C was 145 % of control. Further, the survivor count (T/C endpoint: median survival time, dose: 1111.11 mg/kg/injection, schedule: Q01DX005 (ip), vehicle: saline) is given as 4 of 6.
Turning to `ClC1(Cl)C2CCCCCCC21` (configuration not stated), the survivor count (T/C endpoint: mean survival time, dose: 400.0 mg/kg/injection, schedule: Q04DX002 (ip), vehicle: saline with Tween-80) is given as 0 of 3.
Consider `Cc1c2ccccc2c(C)c2c1cc(C(=O)O)c1ccccc12`, for which the T/C is, setting by setting: (T/C endpoint: median survival time, dose: 100.0 mg/kg/injection, schedule: Q01DX009 (ip), vehicle: sodium bicarbonate) 127 and 128 % of control; (T/C endpoint: median survival time, dose: 200.0 mg/kg/injection, schedule: Q01DX009 (ip), vehicle: sodium bicarbonate) 140 % of control; (T/C endpoint: median survival time, dose: 400.0 mg/kg/injection, schedule: Q01DX009 (ip), vehicle: sodium bicarbonate) 135 % of control.
In the case of `NC(=O)C(NCc1ccccc1)c1ccccc1` (configuration not stated), under setting [2], the survivor count was 5 of 6.
Consider `O=C1C=C(C2OC(CI)C(O)C2O)C(=O)N1` (configuration not stated), for which the survivor count runs as follows: (T/C endpoint: mean survival time, dose: 50.0 mg/kg/injection, schedule: Q01DX005 (ip), vehicle: water) 0 of 6; (T/C endpoint: mean survival time, dose: 100.0 mg/kg/injection, schedule: Q01DX005 (ip), vehicle: water) 0 of 6; (T/C endpoint: mean survival time, dose: 200.0 mg/kg/injection, schedule: Q01DX005 (ip), vehicle: water) 0 of 6.
Consider `CNCCSSCCN`, for which the survivor count is 6 of 6 under setting [1] and 0 of 6 under setting [3].
Consider `CCOC(CN(N=O)c1ccccc1C(C)C)OCC`, for which the survivor count under setting [3] is recorded as 3 of 6.
For the compound `C/C(=N\N)c1ccc(Cl)cc1`, the survivor count (T/C endpoint: mean survival time, dose: 100.0 mg/kg/injection, schedule: Q01DX009 (ip), vehicle: saline with Tween-80) was 1 of 6; the survivor count under setting [1] is given as 0 of 6; the survivor count under setting [3] is 0 of 6.
Take `CN(C)CCCCc1cn(-c2ccccc2)c2ccccc12`: the survivor count was 1 of 6 (T/C endpoint: mean survival time, dose: 75.0 mg/kg/injection, schedule: Q01DX009 (ip), vehicle: saline); 0 of 6 (T/C endpoint: mean survival time, dose: 115.0 mg/kg/injection, schedule: Q01DX009 (ip), vehicle: saline); 0 of 6 (T/C endpoint: mean survival time, dose: 170.0 mg/kg/injection, schedule: Q01DX009 (ip), vehicle: saline).
`COc1ccc(C=C2C(=O)C=CC2=O)cc1O`: the survivor count is, setting by setting: (T/C endpoint: mean survival time, dose: 50.0 mg/kg/injection, schedule: Q04DX002 (ip), vehicle: saline with Tween-80) 0 of 3; (T/C endpoint: mean survival time, dose: 100.0 mg/kg/injection, schedule: Q04DX002 (ip), vehicle: saline with Tween-80) 0 of 3; (T/C endpoint: mean survival time, dose: 200.0 mg/kg/injection, schedule: Q04DX002 (ip), vehicle: saline with Tween-80) 0 of 3.
For the compound `COc1ccc2c(c1)-c1nn(CCCN(C)C)c3ccc([N+](=O)[O-])c(c13)N2`, the T/C is 132 % of control (T/C endpoint: median survival time, dose: 3.12 mg/kg/injection, schedule: Q01DX005 (ip), vehicle: water); 143 % of control (T/C endpoint: median survival time, dose: 4.5 mg/kg/injection, schedule: Q01DX005 (ip), vehicle: water); 144 % of control (T/C endpoint: median survival time, dose: 6.25 mg/kg/injection, schedule: Q01DX005 (ip), vehicle: water); 144 % of control (T/C endpoint: median survival time, dose: 12.5 mg/kg/injection, schedule: Q01DX005 (ip), vehicle: water); 144 % of control (T/C endpoint: median survival time, dose: 25.0 mg/kg/injection, schedule: Q01DX005 (ip), vehicle: water); 136 % of control (T/C endpoint: median survival time, dose: 25.0 mg/kg/injection, schedule: Q01DX009 (ip), vehicle: water).
